Test results from publication PMC10250389.
No constants are given. Whether binding was seen depends on the method and setting. In cells and extracts the contact can be indirect. These calls come from enrichment with a bait or labelling near it, and not all partners need be listed.

Amino acid sequences for entries named in this document (tags omitted). A change or cut given only in a name is not applied to a line headed by its entry.
UniProt P01024: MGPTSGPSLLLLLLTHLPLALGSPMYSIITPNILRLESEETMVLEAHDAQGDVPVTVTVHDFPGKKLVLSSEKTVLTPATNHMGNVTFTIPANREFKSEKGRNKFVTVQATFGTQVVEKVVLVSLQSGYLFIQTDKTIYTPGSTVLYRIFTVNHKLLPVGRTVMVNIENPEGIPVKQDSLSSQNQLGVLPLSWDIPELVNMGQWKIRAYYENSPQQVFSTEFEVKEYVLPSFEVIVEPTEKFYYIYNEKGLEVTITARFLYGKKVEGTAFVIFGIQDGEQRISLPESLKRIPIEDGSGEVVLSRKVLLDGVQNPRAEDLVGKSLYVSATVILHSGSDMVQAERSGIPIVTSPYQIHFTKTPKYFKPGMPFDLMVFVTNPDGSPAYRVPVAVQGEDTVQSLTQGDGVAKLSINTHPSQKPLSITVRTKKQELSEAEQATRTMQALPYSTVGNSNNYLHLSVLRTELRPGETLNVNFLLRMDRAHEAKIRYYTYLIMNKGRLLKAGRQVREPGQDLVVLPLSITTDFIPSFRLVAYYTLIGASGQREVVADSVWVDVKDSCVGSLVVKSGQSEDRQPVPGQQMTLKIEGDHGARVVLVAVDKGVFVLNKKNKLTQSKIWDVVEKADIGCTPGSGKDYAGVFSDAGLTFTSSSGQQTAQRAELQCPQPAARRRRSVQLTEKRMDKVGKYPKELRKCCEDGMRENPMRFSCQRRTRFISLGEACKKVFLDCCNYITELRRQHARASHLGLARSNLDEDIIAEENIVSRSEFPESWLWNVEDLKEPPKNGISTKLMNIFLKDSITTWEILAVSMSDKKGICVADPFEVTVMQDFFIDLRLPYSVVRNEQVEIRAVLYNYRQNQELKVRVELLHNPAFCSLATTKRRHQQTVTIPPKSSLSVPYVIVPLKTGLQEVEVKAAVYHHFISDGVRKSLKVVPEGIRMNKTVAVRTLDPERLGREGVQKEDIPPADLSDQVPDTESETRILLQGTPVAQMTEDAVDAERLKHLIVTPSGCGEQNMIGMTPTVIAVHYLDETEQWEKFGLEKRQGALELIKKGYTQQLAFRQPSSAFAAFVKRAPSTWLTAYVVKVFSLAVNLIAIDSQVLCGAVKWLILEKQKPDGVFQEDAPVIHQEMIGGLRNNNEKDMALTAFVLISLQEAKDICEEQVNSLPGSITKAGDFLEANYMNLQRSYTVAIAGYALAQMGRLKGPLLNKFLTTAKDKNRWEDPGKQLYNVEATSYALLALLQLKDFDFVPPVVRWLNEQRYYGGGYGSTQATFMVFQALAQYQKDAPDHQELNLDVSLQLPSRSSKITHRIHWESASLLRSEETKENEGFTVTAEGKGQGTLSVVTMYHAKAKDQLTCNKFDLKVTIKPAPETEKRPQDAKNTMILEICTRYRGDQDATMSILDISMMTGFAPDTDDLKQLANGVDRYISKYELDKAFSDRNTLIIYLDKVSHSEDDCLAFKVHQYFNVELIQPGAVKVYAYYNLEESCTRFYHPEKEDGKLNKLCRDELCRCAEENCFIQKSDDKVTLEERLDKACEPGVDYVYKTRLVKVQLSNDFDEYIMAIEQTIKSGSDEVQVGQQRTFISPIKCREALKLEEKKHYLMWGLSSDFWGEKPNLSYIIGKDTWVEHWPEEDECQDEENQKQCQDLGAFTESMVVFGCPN
UniProt Q09028: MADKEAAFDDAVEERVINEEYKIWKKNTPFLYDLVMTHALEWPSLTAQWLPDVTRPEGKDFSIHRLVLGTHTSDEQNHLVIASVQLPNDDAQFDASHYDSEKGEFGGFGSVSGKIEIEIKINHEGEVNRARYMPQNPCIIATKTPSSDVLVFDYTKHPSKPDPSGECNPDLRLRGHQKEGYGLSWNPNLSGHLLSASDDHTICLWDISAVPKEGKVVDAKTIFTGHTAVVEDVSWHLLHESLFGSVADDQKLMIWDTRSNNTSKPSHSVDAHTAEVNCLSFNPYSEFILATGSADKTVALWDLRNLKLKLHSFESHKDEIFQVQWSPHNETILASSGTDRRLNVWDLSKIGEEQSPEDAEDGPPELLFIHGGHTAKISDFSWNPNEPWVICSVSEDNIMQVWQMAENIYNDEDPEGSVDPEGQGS

Target: complement C3b, the activated fragment of complement component 3 (nuclear C3b of A549-PTX cells) (human (endogenous in A549)) (UniProt P01024)
Assay: affinity purification with mass spectrometry; nuclear proteins of A549-PTX cells; co-IP of C3b-binding proteins followed by mass spectrometric analysis

RBBP4 (from UniProt Q09028 1-425)
binding: binds
